In all, about 360,000 compounds went through this assay and about 7,500 (2.1%) were called active. The shares of active, inactive and inconclusive entries below differ from those in the screen. Calls come from the whole dose curve; as a rule, active = well fitted inhibition curve with a large enough effect; inconclusive = small, poorly fitted or top-dose-only effect, or effect the other way; inactive = flat fitted curve, though single readings scatter. A potency beside an inconclusive call is a rough fit, not a confirmed value.
Assay: Nrf2 qHTS screen for inhibitors; note: nearly all actives have a fitted effect of over 60% in size
Settings: A549 ARE-Fluc reporter, luciferase luminescence, 18-24 h; activity change, negative = inhibition: at 46 µM (top of the series)
How it was run: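 Reporter: ARE-Fluc in A549. Exposure: 18-24 h, 37 °C, 5% CO2, 5% FBS OPTI-MEM. Readouts: fluorescent cytotoxicity (CellTiter-Fluor), then luminescent Nrf2 signal after BugLite.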
% is set by controls: 0 for no effect and ±100 for the full control effect; potency is the fitted concentration of half-maximal effect.

Row | SMILES | Potency | activity change, negative = inhibition
1 | COc1cc(S(=O)(=O)NCCc2c(C)[nH]c3ccccc23)c(C)cc1C | inconclusive: 16.4 µM [falling, partial curve, poor fit] | 
2 | N#CCCN(CCC#N)c1nncs1 | inconclusive: 6.51 µM [activator, partial curve, poor fit] | 
3 | COc1ccc(N(Cc2cc3cccc(C)c3[nH]c2=O)C(=O)c2cccc(Cl)c2)cc1 | inconclusive: 29.1 µM [falling, single point] | 
4 | CCN(CC)c1ccc(NC(=O)c2ccc(NC(=O)C3CCCO3)cc2)c(C)c1 (stereo not given) | inconclusive: 1.46 µM [falling, partial curve, poor fit] | 
5 | O=C(NCCO)c1cc2cc(Cl)cc(Cl)c2oc1=O | inconclusive: 3.66 µM [activator, partial curve, poor fit] | 
6 | CN(C)C(=O)CSc1nnc(C23CC4CC(CC(C4)C2)C3)o1 | inconclusive: 5.17 µM [activator, full curve, poor fit] | 
7 | COc1ccc(S(=O)(=O)Nc2cc3c4c(c2)C(C)C(=O)N4CCC3)cc1OC (stereo not given) | inconclusive: 0.366 µM [falling, full curve, poor fit] | 
8 | COc1ccc2c(c1)nc(N)n2Cc1ccccc1 | inconclusive: 29.1 µM [falling, single point] | 
9 | CC(=O)c1cccc(S(=O)(=O)Nc2ccc3nc(C)sc3c2)c1 | inconclusive: 20.6 µM [falling, partial curve, poor fit] | 
10 | COc1ccc(NC(=O)CSc2nc3c(oc4ccccc43)c(=O)n2Cc2ccco2)cc1Cl | inconclusive: 18.4 µM [falling, single point] | 
11 | CCOc1ccc(C(=O)NC(=S)Nc2ccccc2N2CCCCC2)cc1[N+](=O)[O-] | inconclusive: 0.366 µM [activator, full curve, poor fit] | 
12 | COc1ccc(C)cc1N(CC(=O)Nc1ccc(S(=O)(=O)N2CCCC2)cc1)S(C)(=O)=O | inconclusive: 9.2 µM [falling, partial curve, poor fit] | 
13 | CCCCN(CCCC)c1nc2ccccc2nc1NS(=O)(=O)c1ccc(NC(C)=O)cc1 | inconclusive: 29.1 µM [falling, single point] | 
14 | C=CCC[C@@H](Cc1ccc(F)cc1)C(=O)OC[C@H]1CCCN1C(=O)[C@@H](CC=C)CC(=O)N[C@H](CO)Cc1ccccc1 | inconclusive: 29.1 µM [falling, single point] | 
15 | C[C@@]12C(=O)Nc3cc(F)c(F)cc3C(=O)N1[C@H]1c3ccccc3OC[C@@H]1[C@@H]2c1ccccc1 | inconclusive: 29.1 µM [falling, single point] | 
16 | COC(=O)CSC1=C(C#N)C(c2ccc(C)cc2)C2=C(CCCC2=O)N1 (stereo not given) | inconclusive: 8.2 µM [activator, partial curve, poor fit] | 
17 | C[C@@H](CSc1ccccc1)CN1CC[C@H](NC(=O)OCc2ccccc2)CCC1=O | inconclusive: 29.1 µM [falling, single point] | 
18 | COc1ccc([C@@H]2CC=C(C(=O)O)[C@H](c3ccc(C(C)(C)C)cc3)N2S(=O)(=O)c2ccc(C)cc2)cc1OC | inconclusive: 20.6 µM [falling, partial curve, poor fit] | 
19 | COc1ccc(CNC(=O)C2CCC(CNS(=O)(=O)c3ccc4c(c3)CCCC(=O)N4)CC2)cc1 (stereo not given) |  | inactive: -0.479%
20 | Cc1cccc(NS(=O)(=O)c2ccc(C)c(C(=O)NCC(c3ccco3)N3CCCCC3)c2)c1 (stereo not given) | inconclusive: 14.6 µM [falling, partial curve] | 

Row | SMILES | Potency | activity change, negative = inhibition
21 | NC(=O)C1CCN(c2oc(-c3cccs3)nc2S(=O)(=O)c2ccc(Cl)cc2)CC1 | inconclusive: 5.8 µM [falling, partial curve, poor fit] | 
22 | CCCCCN(C(=O)CCC(=O)OCC(=O)c1ccc(C(C)CC)cc1)c1c(N)n(CCCC)c(=O)[nH]c1=O (stereo not given) | active: 10.3 µM | 
23 | Cc1ccc(C#CC[N+]2(C)CCCCC2)cc1 | inconclusive: 13 µM [falling, partial curve] | 
24 | CCc1ccc(C(=O)NCC2(c3ccccc3)CCOCC2)o1 | inconclusive: 6.51 µM [activator, partial curve] | 
25 | Cc1ccc(-c2ccc(SCC(=O)c3ccccc3)nn2)cc1 | inconclusive: 20.6 µM [activator, partial curve] | 
26 | COC(=O)C1=C(C)NC(C)=C(C(=O)OC)C1c1ccccc1OCc1c(C)no[n+]1[O-] | inconclusive: 29.1 µM [falling, single point] | 
27 | COc1ccc(/C=N/NC(=O)c2cccnc2)cc1COc1ccc([N+](=O)[O-])cc1 | inconclusive: 29.1 µM [falling, single point] | 
28 | O=C(O)c1ccc(N/N=C/C(Br)=C/c2ccccc2)cc1 | inconclusive: 0.259 µM [activator, full curve, poor fit] | 
29 | Cc1cccc(C(=O)Nc2ccnc(-c3cccnc3)n2)c1 | inconclusive: 4.11 µM [falling, partial curve, poor fit] | 
30 | Cc1ccc(CCNC(=O)C2CCC(=O)N(Cc3ccccc3F)C2)o1 (stereo not given) | inconclusive: 13 µM [activator, partial curve] | 
31 | Cc1cccc(NC(=O)CSc2ncnc3sc(C)c(C)c23)n1 | inconclusive: 25.9 µM [falling, partial curve] | 
32 | Cc1ccc(C)c(NC(=S)NC(NC(=O)/C=C/c2ccccc2)C(Cl)(Cl)Cl)c1 (stereo not given) | active: 8.2 µM | 
33 | CN(C)Cc1c(O)ccc2c(=O)c(-c3ccc(Cl)cc3)coc12 | inconclusive: 20.6 µM [activator, single point] | 
34 | BrC(/C=N/Nc1nc(N2CCOCC2)nc(N2CCOCC2)n1)=C/c1ccccc1 |  | inactive: -14%
35 | CCCCCC(=O)NNC(=O)c1ccc(F)cc1 |  | inactive: 4.26%
36 | Cc1cc(C)cc(NC(=O)Cn2cc(C(=O)C3CCCCC3)c3ccccc32)c1 | inconclusive: 23.1 µM [activator, partial curve, poor fit] | 
37 | O=C(NC1CCCCC1)N1CCCC(CNS(=O)(=O)Cc2ccccc2)C1 (stereo not given) |  | inactive: -23.9%
38 | CNC(=S)N/N=C/c1ccc(-c2cccc(C(=O)O)c2)o1 |  | inactive: 15.7%
39 | CCn1c(SCc2nc(-c3ccc(OC)c(OC)c3)no2)nnc1-c1cccs1 | active: 20.6 µM | 
40 | COC(=O)[C@]1(C)N[C@H](CN(C)S(=O)(=O)c2ccc(OC)cc2)[C@@H]2C(=O)N(C)C(=O)[C@@H]21 |  | inactive: 4.33%

Part of the list above in order of number of heavy atoms, ascending.
Row | SMILES | Potency | activity change, negative = inhibition
39 | CCn1c(SCc2nc(-c3ccc(OC)c(OC)c3)no2)nnc1-c1cccs1 | active: 20.6 µM | 
11 | CCOc1ccc(C(=O)NC(=S)Nc2ccccc2N2CCCCC2)cc1[N+](=O)[O-] | inconclusive: 0.366 µM [activator, full curve, poor fit] | 
10 | COc1ccc(NC(=O)CSc2nc3c(oc4ccccc43)c(=O)n2Cc2ccco2)cc1Cl | inconclusive: 18.4 µM [falling, single point] | 

(further entries)

Row | SMILES | Potency | activity change, negative = inhibition
41 | Cc1[nH]n(-c2ccc(Cl)cc2)c(=O)c1C(=O)c1ccccc1 | active: 20.6 µM | 
42 | O=C(CSc1nc2ccccc2[nH]1)Nc1cccc(S(=O)(=O)N2CCOCC2)c1 | inconclusive: 18.4 µM [falling, partial curve, poor fit] | 
43 | Cc1ccc(NC(=O)c2cccc(NC(=O)CC3SC(N4CCCCC4)=NC3=O)c2)nc1 (stereo not given) | inconclusive: 2.31 µM [activator, full curve, poor fit] | 
44 | COc1ccccc1CNC(=O)c1cn(C)c2ccc(S(=O)(=O)N(C)C3CCCCC3)cc2c1=O |  | inactive: -1.81%
45 | Cc1ccc(NC(=O)CSc2cn(CC(=O)N3CCCC3)c3ccccc23)cc1Cl | inconclusive: 8.2 µM [activator, partial curve] | 
46 | Cc1nc2c(nnn2Cc2ccccc2Cl)c(=O)[nH]1 | inconclusive: 2.91 µM [activator, partial curve] | 
47 | O=[N+]([O-])c1cccc(/C=C/c2nc[nH]c2[N+](=O)[O-])c1 |  | inactive: 3.85%
48 | C#CCOCCOCCOCCNc1nc(N2CCN(C(=O)CCCCCCCCCCNC(=O)[C@@H](CCSC)n3cc(CCO)nn3)CC2)nc(N2CCN(C(=O)CCCCCCCCCCNC(=O)[C@H](CO)n3cc(CCCCCN)nn3)CC2)n1 | inconclusive: 29.1 µM [falling, single point] | 
49 | Cc1ccccc1NC(=O)COc1coc(CN2CCCc3ccccc32)cc1=O | inconclusive: 29.1 µM [falling, partial curve, poor fit] | 
50 | CC(=O)Nc1ccc(NC(=O)C(C)c2cccc(C(=O)c3ccccc3)c2)cc1 (stereo not given) |  | inactive: -0.785%
51 | CC(C)(O)C#Cc1ccc(C(=O)N2CCN(c3ccc(Cl)cc3)CC2)cc1 | inconclusive: 18.4 µM [falling, single point] | 
52 | CCS(=O)(=O)Nc1cccc(C2=NN(S(=O)(=O)c3ccccc3)C(c3cccs3)C2)c1 (stereo not given) | inconclusive: 23.1 µM [falling, partial curve] | 
53 | C#CCOCCOCCOCCNc1nc(N2CCN(C(=O)CCCCCCCCCCNC(=O)[C@@H](CCC(=O)O)n3cc(CCCCCN)nn3)CC2)nc(N2CCN(C(=O)CCCCCCCCCCNC(=O)[C@H](CCCCN)n3cc(C[C@@H](C)CC)nn3)CC2)n1 | inconclusive: 16.4 µM [falling, partial curve] | 
54 | C=CCOC(=O)C1=C[C@@H](c2coc3ccccc3c2=O)C[C@@H](OCc2ccc(CO)cc2)O1 | inconclusive: 23.1 µM [falling, partial curve] | 
55 | Cc1csc2nc(COc3cccc(NC(=O)c4ccccc4F)c3)cc(=O)n12 |  | inactive: -7.66%
56 | O=c1cc(CN2CCc3ccccc32)nc2sccn12 |  | inactive: 13.4%
57 | O=C1CN(C(=O)c2ccccc2)C(c2ccccc2)c2cc(F)ccc2N1 (stereo not given) |  | inactive: -3.08%
58 | COc1cc(C(=O)OC(C)C(=O)NC(=O)NC2CCCCC2)ccc1OC(F)F (stereo not given) | inconclusive: 29.1 µM [falling, single point] | 
59 | COc1ccc(OCC(O)Cn2c(NCCO)nc3c2c(=O)n(C)c(=O)n3C)cc1 (stereo not given) | active: 7.31 µM | 
60 | Cc1ccc(/C=C2\SC(=S)N(CCC(=O)NNC(=O)c3ccccc3O)C2=O)cc1 | inconclusive: 10.3 µM [falling, partial curve, poor fit] | 

From PubChem BioAssay AID504444 (National Center for Advancing Translational Sciences (NCATS), 2011)
